Test results as given in PubChem BioAssay (EPA / NIEHS).
Inconclusive results, whose numbers are uncertain, are shown with a selection of clear calls. A potency beside an inconclusive call is a rough fit, not a confirmed value. The source made the active and inactive calls. How the source made its calls: active means hit-call score of the fitted dose curve at least 0.9, where 1 is the maximum; inconclusive means response in the unintended direction; inactive means score below 0.9.

Protein sequences, listed by entry. Tags and fused reporters are not part of them.
UniProt P06241, whole entry, looked up: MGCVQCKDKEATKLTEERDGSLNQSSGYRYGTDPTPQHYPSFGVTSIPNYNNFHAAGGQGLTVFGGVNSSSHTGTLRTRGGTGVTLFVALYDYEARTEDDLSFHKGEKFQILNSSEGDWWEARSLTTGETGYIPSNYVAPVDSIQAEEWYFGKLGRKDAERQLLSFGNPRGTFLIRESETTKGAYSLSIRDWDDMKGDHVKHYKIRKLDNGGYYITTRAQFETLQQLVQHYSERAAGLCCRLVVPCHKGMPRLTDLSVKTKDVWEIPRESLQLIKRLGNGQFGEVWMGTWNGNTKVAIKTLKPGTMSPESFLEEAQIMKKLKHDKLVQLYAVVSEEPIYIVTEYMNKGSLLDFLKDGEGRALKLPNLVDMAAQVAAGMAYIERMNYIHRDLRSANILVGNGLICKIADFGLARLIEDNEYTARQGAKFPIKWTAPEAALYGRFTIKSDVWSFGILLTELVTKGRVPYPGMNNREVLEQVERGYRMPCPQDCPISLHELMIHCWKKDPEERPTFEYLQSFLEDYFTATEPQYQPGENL

target: human FYN Proto-Oncogene, Src family Tyrosine Kinase (Fyn), FYN (gene 2534) (UniProt P06241); experiment: NVS_ENZ_hFyn: NovaScreen (NVS) Enzymatic Assay for human FYN Proto-Oncogene, Src family Tyrosine Kinase (Fyn) (AID 2283161)
Method: NVS_ENZ_hFyn is a biochemical, single-readout assay that uses extracted gene-proteins in a cell-free assay. Measurements were taken 1 hour after chemical dosing in a 384-well plate.NVS_ENZ_hFyn is one of one assay component(s) measured or calculated from the NVS_ENZ_hFyn assay. It is designed to make measurements of enzyme activity, a form of enzyme reporter, as detected with fluorescence intensity signals by Fluorescence and electrophoretic mobility shift technology.Data from the assay component NVS_ENZ_hFyn was analyzed into 1 assay endpoint. This assay endpoint, NVS_ENZ_hFyn, was analyzed in the positive analysis fitting direction relative to DMSO as the negative control and baseline of activity. Using a type of enzyme reporter, loss-of-signal activity can be used to understand changes in the enzymatic activity as they relate to the gene FYN. Furthermore, this assay endpoint can be referred to as a primary readout, because this assay has produced multiple assay endpoints where this one serves a enzymatic activity function. To generalize the intended target to other relatable targets, this assay endpoint is annotated to the kinase intended target family, where the subfamily is non-receptor tyrosine kinase.
Binding assays used specific radioligands (tritiated, iodinated) with non-radioactive competitive displacement ligands in agonist or antagonist protocols (as indicated) and various reference compounds and inhibitors to titrate specific binding to receptors and transporters. Most enzyme assays (CYPs, kinases, phosphatases, proteases, HDACs) used recombinant protein and specific substrates (fluorescence mostly, some colorimetric and radioactive) and inhibitors, followed by a biochemical separation of substrate and product. All assays for the biochemical HTS were initially run in duplicate at a single concentration (10 uM for CYP450 assays and 25 uM for all others). […] Each assay was run with positive and negative controls, and concurrent controls on every plate. The follow-up (secondary) screen tested active chemical-pairs in concentration series, as well as a few additional assays not tested in the primary screen, some selected negative inactives, and several cases re-run in the concentration series for confirmatory purposes.

Row | SMILES | AC50 | outcome
1 | OC1CCC(C2CCCCC2)CC1 (centres undefined) | inconclusive: 15.4 µM | –
2 | O=C(O)Cc1cc(I)c(Oc2cc(I)c(O)c(I)c2)c(I)c1 | – | inactive
3 | O=C(c1ccc(O)cc1O)c1ccc(O)cc1O | active: 15.1 µM | –
4 | O=C(O)c1cccc(Oc2ccccc2)c1 | inconclusive: 25 µM | –
5 | CCN(CC)CCNc1ccc(CNC=O)c2sc3ccc(OC)cc3c(=O)c12 | active: 2.1 µM | –
6 | N#C[C@@H]1CC(F)(F)CN1C(=O)CNC1CC2CCC(C1)N2c1ncccn1 (some centres undefined) | inconclusive: 0.147 µM | –
7 | O=C(c1ccc(OCCN2CCCCC2)cc1)c1c(-c2ccc(O)cc2)sc2cc(O)ccc12 | active: 35.6 µM | –
8 | CCc1c(C(=O)NN2CCCCC2)nn(-c2ccc(Cl)cc2Cl)c1-c1ccc(Br)cc1 | inconclusive: 25 µM | –
9 | CN(C)C(=O)NC1(c2ccccc2)CCN(CCC[C@]2(c3ccc(Cl)c(Cl)c3)CCCN(C(=O)c3ccccc3)C2)CC1 | inconclusive: 0.0041 µM | –
10 | CCN(CC)CCOc1ccc(C(=C(Cl)c2ccccc2)c2ccccc2)cc1 | active: 33.6 µM | –
11 | CCN(CC)C(=O)c1cc(S(=O)(=O)Cc2ccccc2)c(N2CCC(c3ccccc3)CC2)cc1N(CC)CCN(C)C | inconclusive: 23.4 µM | –
12 | CCO[Si](CCCNC(N)=O)(OCC)OCC | inconclusive: 45.2 µM | –
13 | O=c1[nH]cnc2c1ncn2[C@H]1CC[C@@H](CO)O1 | inconclusive: 25 µM | –
14 | CC(C)CCCCCCc1ccc(O)cc1 | – | inactive

At a glance, two of the compounds above:
Row | SMILES | AC50 | outcome
3 | O=C(c1ccc(O)cc1O)c1ccc(O)cc1O | active: 15.1 µM | –
4 | O=C(O)c1cccc(Oc2ccccc2)c1 | inconclusive: 25 µM | –
